These results are taken from patent US5236815A, “Class of masked stabilizers in photographic materials or developing solutions” (priority 1991, dated 1993).

The nature of the series: Sensitometry and screen dot quality after development in Rapid Access developer containing the compound (Example 2, Table 1). To be noted: 0.46 mmole/l in developer; for dot rating (screen dot quality): arbitrary 0 (best) to 5, increasing = degrading quality, above 3 not commercially acceptable; for gv (gradient in the toe of the sensitometric curve): between densities 0.1 and 0.6 above fog; for g (straight line gradient): between densities 0.3 and 3.0 above fog; for rel. S (photographic speed, relative arithmetic values): measured at density 3.00 above fog, comparison sample 1 (5-NI) = 100.

SMILES strings stand for the structures.

For the compound `O=[N+]([O-])c1ccc2[nH]ncc2c1` [5-nitroindazole], the “dot rating (screen dot quality)” value is 2-3; the “gv (gradient in the toe of the sensitometric curve)” value worked out at 4.3; the “g (straight line gradient)” value turned out to be 12.8; the “rel. S (photographic speed, relative arithmetic values)” value is 100.

Take `O=C(c1ccccc1S(=O)(=O)O)n1ncc2cc([N+](=O)[O-])ccc21` [Compound I-5]: the “dot rating (screen dot quality)” value is on record as 1-2; the “gv (gradient in the toe of the sensitometric curve)” value is recorded as 5.7; the “g (straight line gradient)” value is recorded as 16.0; the “rel. S (photographic speed, relative arithmetic values)” value stood at 112.
